Reference: publication PMC6220335, “Molecular structure of promoter-bound yeast TFIID” (Nature Communications, 2018)
No constants are given. Whether binding was seen depends on the method and setting. Some entries that bind do so weakly or less than the wild type.

T1: Taf5, subunit of Komagataella phaffii TFIID (Komagataella phaffii) (UniProt F2QWD3)
T1 sequence: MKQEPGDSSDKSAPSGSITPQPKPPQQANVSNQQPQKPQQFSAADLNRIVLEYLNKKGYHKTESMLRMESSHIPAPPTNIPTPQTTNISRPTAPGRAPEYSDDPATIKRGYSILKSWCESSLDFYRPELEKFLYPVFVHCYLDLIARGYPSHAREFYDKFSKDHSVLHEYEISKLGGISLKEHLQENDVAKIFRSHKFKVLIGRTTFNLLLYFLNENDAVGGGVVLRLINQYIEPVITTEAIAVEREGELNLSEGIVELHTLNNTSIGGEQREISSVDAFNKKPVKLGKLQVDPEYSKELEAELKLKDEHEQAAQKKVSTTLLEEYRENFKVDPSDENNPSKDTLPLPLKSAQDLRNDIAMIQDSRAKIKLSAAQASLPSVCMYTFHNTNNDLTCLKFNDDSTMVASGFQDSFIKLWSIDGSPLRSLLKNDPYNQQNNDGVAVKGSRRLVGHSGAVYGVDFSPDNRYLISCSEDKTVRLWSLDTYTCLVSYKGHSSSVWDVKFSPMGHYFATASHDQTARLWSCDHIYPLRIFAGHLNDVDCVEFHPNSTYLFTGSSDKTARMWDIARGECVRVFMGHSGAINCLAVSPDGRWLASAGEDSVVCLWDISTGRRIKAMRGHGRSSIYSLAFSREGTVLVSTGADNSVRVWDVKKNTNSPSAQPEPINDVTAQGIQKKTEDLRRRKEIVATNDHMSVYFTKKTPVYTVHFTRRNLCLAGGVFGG

T2: Taf11, subunit of Komagataella phaffii TFIID (Komagataella phaffii) (UniProt F2QRB1)
T2 sequence: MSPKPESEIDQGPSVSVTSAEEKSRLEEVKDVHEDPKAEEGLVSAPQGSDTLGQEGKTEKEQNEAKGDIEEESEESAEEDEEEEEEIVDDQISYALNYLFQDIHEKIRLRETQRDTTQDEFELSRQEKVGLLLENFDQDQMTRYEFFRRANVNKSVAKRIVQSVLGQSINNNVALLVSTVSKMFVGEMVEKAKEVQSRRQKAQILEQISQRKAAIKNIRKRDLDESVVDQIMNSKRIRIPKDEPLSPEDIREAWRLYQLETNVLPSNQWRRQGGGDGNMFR

T3: Taf12, subunit of Komagataella phaffii TFIID (Komagataella phaffii) (UniProt F2QSK7)
T3 sequence: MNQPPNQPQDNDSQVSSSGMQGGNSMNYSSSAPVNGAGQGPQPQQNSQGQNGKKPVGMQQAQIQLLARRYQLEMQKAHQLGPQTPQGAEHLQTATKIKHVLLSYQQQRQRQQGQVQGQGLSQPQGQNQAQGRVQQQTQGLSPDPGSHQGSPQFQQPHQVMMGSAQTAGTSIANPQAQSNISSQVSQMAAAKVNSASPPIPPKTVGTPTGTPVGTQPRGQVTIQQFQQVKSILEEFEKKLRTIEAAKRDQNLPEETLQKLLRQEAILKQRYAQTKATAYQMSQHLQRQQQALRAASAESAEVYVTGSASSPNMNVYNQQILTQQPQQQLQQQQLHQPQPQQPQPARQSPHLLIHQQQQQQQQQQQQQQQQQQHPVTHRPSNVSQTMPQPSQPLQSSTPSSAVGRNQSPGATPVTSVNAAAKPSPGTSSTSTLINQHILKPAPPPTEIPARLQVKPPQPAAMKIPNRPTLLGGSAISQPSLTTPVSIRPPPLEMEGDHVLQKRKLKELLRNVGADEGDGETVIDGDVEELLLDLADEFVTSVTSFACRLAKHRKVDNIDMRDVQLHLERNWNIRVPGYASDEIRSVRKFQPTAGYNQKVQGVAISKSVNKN

T4: Taf4, subunit of Komagataella phaffii TFIID (Komagataella phaffii) (UniProt F2QWX2)
T4 sequence: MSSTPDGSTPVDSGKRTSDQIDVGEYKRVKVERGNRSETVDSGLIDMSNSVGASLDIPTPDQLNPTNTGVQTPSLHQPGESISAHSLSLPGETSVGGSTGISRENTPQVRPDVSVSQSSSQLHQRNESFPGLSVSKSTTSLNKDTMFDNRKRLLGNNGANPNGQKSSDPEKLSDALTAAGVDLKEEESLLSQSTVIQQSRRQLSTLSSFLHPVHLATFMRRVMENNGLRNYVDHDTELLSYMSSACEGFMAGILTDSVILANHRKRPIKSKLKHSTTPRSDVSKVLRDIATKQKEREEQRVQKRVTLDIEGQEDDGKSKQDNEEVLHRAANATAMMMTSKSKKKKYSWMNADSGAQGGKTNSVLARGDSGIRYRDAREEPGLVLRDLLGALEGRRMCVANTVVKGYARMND

T5: Taf6, subunit of Komagataella phaffii TFIID (Komagataella phaffii) (UniProt F2QMA7)
T5 sequence: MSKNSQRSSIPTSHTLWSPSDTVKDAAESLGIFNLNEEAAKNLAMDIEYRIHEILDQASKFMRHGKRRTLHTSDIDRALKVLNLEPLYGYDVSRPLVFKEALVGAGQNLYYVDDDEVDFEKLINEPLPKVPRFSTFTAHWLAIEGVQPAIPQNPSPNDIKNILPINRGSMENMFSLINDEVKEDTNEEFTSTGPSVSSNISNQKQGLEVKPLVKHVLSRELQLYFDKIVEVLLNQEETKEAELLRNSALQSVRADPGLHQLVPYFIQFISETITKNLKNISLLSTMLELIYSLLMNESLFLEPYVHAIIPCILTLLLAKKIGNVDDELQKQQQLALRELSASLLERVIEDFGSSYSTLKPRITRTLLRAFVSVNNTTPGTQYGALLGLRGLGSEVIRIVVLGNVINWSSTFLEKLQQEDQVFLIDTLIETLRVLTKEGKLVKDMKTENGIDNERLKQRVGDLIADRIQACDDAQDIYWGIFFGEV

T6: Taf9, subunit of Komagataella phaffii TFIID (Komagataella phaffii) (UniProt F2QTW3)
T6 sequence: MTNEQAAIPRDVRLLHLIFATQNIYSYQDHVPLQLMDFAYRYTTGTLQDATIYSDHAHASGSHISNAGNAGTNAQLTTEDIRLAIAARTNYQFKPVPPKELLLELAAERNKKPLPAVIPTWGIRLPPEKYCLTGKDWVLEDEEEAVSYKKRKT


Columns and labels:
[1] = target: T1, Taf5, subunit of Komagataella phaffii TFIID (Komagataella phaffii); test: cryo-EM structure; purified TFIID (0.4 µM) with two-fold excess of TFIIA and 2.5–3-fold excess of pGAP promoter DNA, cross-linked with 0.1% glutaraldehyde; focused refinement of the lobes (Taf2 lobe 4.5 Å, Twin lobe 4.8 Å); homology models docked; both purified
[2] = target: T1, Taf5, subunit of Komagataella phaffii TFIID (Komagataella phaffii); test: cross-linking; 50 µg purified TFIID, 3 mM BS3, 2 h at 25 °C; trypsin, SCX fractionation, Orbitrap Fusion MS; pLink and Nexus, 5% FDR; both purified
[3] = target: T2, Taf11, subunit of Komagataella phaffii TFIID (Komagataella phaffii); test: as above
[4] = target: T3, Taf12, subunit of Komagataella phaffii TFIID (Komagataella phaffii); test: as above
[5] = target: T4, Taf4, subunit of Komagataella phaffii TFIID (Komagataella phaffii); test: as above
[6] = target: T5, Taf6, subunit of Komagataella phaffii TFIID (Komagataella phaffii); test: as above
[7] = target: T6, Taf9, subunit of Komagataella phaffii TFIID (Komagataella phaffii); test: as above
[8] = target: T5, Taf6, subunit of Komagataella phaffii TFIID (Komagataella phaffii); test: cryo-EM structure; purified TFIID (0.4 µM) with two-fold excess of TFIIA and 2.5–3-fold excess of pGAP promoter DNA, cross-linked with 0.1% glutaraldehyde; focused refinement of the lobes (Taf2 lobe 4.5 Å, Twin lobe 4.8 Å); homology models docked; both purified

Binder	binding [2]	binding [6]	binding [8]	also measured
Taf6, subunit of Komagataella phaffii TFIID (natural protein, UniProt F2QMA7 1-485, looked up, Taf6, TFIID subunit of the yeast Komagataella phaffii (formerly Pichia pastoris); HEAT repeats (residues 213–486) and histone-fold domain modelled in the cryo-EM map; two copies in holo-TFIID; source: endogenous, K. phaffii nuclear extract; co-purified in TFIID by SBP-tagged Taf2 (streptavidin beads, sucrose gradient)) MSKNSQRSSIPTSHTLWSPSDTVKDAAESLGIFNLNEEAAKNLAMDIEYRIHEILDQASKFMRHGKRRTLHTSDIDRALKVLNLEPLYGYDVSRPLVFKEALVGAGQNLYYVDDDEVDFEKLINEPLPKVPRFSTFTAHWLAIEGVQPAIPQNPSPNDIKNILPINRGSMENMFSLINDEVKEDTNEEFTSTGPSVSSNISNQKQGLEVKPLVKHVLSRELQLYFDKIVEVLLNQEETKEAELLRNSALQSVRADPGLHQLVPYFIQFISETITKNLKNISLLSTMLELIYSLLMNESLFLEPYVHAIIPCILTLLLAKKIGNVDDELQKQQQLALRELSASLLERVIEDFGSSYSTLKPRITRTLLRAFVSVNNTTPGTQYGALLGLRGLGSEVIRIVVLGNVINWSSTFLEKLQQEDQVFLIDTLIETLRVLTKEGKLVKDMKTENGIDNERLKQRVGDLIADRIQACDDAQDIYWGIFFGEV	binds	–	–	binding [1]: binds
Taf13, subunit of Komagataella phaffii TFIID (protein, UniProt A0A1G4KP49 1-139) MSRKPERRRQPRLFSNDMRTLLFAYGDVQQPQLETIQALEDVMIVFMTDLCHEAMTYATYQGRKHKLKMEDFKFALRKDRLKLGRVEELMNKQKEIQEARKLFDSNEKETKDDDIEKKRRKEAKRAIKEAKKLKLSKGD	binds	binds	–	binding [3]: binds; binding [4]: binds; binding [5]: binds; binding [7]: binds
Taf9, subunit of Komagataella phaffii TFIID (natural protein, UniProt F2QTW3 1-153, looked up, Taf9, TFIID subunit of the yeast Komagataella phaffii (formerly Pichia pastoris); histone-fold domain modelled in the cryo-EM map; source: endogenous, K. phaffii nuclear extract; co-purified in TFIID by SBP-tagged Taf2 (streptavidin beads, sucrose gradient)) MTNEQAAIPRDVRLLHLIFATQNIYSYQDHVPLQLMDFAYRYTTGTLQDATIYSDHAHASGSHISNAGNAGTNAQLTTEDIRLAIAARTNYQFKPVPPKELLLELAAERNKKPLPAVIPTWGIRLPPEKYCLTGKDWVLEDEEEAVSYKKRKT	–	binds	binds	–
Taf8, subunit of Komagataella phaffii TFIID (natural protein, UniProt F2QT15 1-517, looked up, Taf8, TFIID subunit of the yeast Komagataella phaffii (formerly Pichia pastoris); putative helices placed in the cryo-EM map; also called KpTaf8; source: endogenous, K. phaffii nuclear extract; co-purified in TFIID by SBP-tagged Taf2 (streptavidin beads, sucrose gradient)) MADKSDDNQSLVSVSSASSGKENPNSVGQRSMNPTLSHEEQHDQEVQERYNTGKDLNITSQPECVPAMEVALKASVLLILSSLGVQASSLSIDHLTYITTKYIDRLVSELHRSTEIQRRRTIAKRDVQLVVDRGILDLEDVTLEYERLKLTRKRVKPSIEKLSKYASELKESASSVQVSENDKDAFFFFDIAEKISEFMPLRMKRKNYIPKWMPVLPPEHTYVATPQFTEVISDPKELREQLTAESRLGEKALQHLIGTKIVEDKKEDVGNENDNDIDKEIHHGEIDVESDHNLEKGPNGETNGVQSQPPKSMVSSKRFDIVAHAKHRLSVLEKRKRHQEQLLENRRKEIDGLVGQYLGYYATKKIEPPVSDIIVNIMNTEYYHVSREISKSEHRKQKIQESQQLKRRKLEDELQQELEHQTEDIDFEFNFDEDDVDMNKNLNENLNENENDDEQVLIEEDTSFDITNGDIEKTNQETPFTNGSSKQWDSNNAILDSTNSEPEPEPPIADLFNVDSS	–	binds	binds	–
Taf11, subunit of Komagataella phaffii TFIID (natural protein, UniProt F2QRB1 1-281, looked up, Taf11, TFIID subunit of the yeast Komagataella phaffii (formerly Pichia pastoris); histone-fold domain modelled in the cryo-EM map; source: endogenous, K. phaffii nuclear extract; co-purified in TFIID by SBP-tagged Taf2 (streptavidin beads, sucrose gradient)) MSPKPESEIDQGPSVSVTSAEEKSRLEEVKDVHEDPKAEEGLVSAPQGSDTLGQEGKTEKEQNEAKGDIEEESEESAEEDEEEEEEIVDDQISYALNYLFQDIHEKIRLRETQRDTTQDEFELSRQEKVGLLLENFDQDQMTRYEFFRRANVNKSVAKRIVQSVLGQSINNNVALLVSTVSKMFVGEMVEKAKEVQSRRQKAQILEQISQRKAAIKNIRKRDLDESVVDQIMNSKRIRIPKDEPLSPEDIREAWRLYQLETNVLPSNQWRRQGGGDGNMFR	–	binds	–	–
